A: 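ClpP1P2, Mycobacterium tuberculosis (UniProt P9WPC5 and UniProt P9WPC3). Protease assay of ClpP1P2, read by the AMC dye that it sets free. Concentration: 50 µM. Direction is inferred from only a few compounds that gave an IC50; most scored high, so higher reads as stronger inhibition. Most other retested compounds had strongly negative values. About 69,000 compounds were tested under these conditions; 0.015% (about 10) showed 50% or more at least once.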
B: 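Polyketide synthase Pks13, Mycobacterium tuberculosis (UniProt I6X8D2). Enzyme assay of the thioesterase domain of polyketide synthase 13; the read-out is not stated. Compounds at 30 µM. The record gives no direction; the compounds picked for IC50 retests had high values, so higher reads as stronger inhibition. Of about 67,000 compounds tested this way, about 300 (0.46%) reached 50% or more in at least one test.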
C: 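Tryptophan-tRNA ligase, Mycobacterium tuberculosis (UniProt P9WFT3). Enzyme assay of tryptophanyl-tRNA synthetase; the read-out is not stated. Concentration: 10 µM. Higher most likely means stronger inhibition; the record gives no direction and few retests gave an IC50. Of about 65,000 compounds tested this way, about 64 (0.098%) reached 50% or more in at least one test.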

Protein sequences, listed by entry. Tags and fused reporters are not part of them.
UniProt P9WPC5, whole entry: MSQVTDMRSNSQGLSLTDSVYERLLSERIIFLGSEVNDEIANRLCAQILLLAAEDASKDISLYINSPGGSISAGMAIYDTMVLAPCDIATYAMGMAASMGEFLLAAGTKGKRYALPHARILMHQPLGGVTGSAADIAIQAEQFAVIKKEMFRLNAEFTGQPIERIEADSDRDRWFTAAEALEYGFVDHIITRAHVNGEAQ
UniProt P9WPC3, whole entry partner: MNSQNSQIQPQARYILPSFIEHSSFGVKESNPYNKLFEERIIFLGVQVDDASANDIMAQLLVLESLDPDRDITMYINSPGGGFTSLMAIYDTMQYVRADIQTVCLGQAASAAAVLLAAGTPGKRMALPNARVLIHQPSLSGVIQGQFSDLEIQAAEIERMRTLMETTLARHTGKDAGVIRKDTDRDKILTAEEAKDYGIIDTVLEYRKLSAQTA
UniProt I6X8D2, whole entry: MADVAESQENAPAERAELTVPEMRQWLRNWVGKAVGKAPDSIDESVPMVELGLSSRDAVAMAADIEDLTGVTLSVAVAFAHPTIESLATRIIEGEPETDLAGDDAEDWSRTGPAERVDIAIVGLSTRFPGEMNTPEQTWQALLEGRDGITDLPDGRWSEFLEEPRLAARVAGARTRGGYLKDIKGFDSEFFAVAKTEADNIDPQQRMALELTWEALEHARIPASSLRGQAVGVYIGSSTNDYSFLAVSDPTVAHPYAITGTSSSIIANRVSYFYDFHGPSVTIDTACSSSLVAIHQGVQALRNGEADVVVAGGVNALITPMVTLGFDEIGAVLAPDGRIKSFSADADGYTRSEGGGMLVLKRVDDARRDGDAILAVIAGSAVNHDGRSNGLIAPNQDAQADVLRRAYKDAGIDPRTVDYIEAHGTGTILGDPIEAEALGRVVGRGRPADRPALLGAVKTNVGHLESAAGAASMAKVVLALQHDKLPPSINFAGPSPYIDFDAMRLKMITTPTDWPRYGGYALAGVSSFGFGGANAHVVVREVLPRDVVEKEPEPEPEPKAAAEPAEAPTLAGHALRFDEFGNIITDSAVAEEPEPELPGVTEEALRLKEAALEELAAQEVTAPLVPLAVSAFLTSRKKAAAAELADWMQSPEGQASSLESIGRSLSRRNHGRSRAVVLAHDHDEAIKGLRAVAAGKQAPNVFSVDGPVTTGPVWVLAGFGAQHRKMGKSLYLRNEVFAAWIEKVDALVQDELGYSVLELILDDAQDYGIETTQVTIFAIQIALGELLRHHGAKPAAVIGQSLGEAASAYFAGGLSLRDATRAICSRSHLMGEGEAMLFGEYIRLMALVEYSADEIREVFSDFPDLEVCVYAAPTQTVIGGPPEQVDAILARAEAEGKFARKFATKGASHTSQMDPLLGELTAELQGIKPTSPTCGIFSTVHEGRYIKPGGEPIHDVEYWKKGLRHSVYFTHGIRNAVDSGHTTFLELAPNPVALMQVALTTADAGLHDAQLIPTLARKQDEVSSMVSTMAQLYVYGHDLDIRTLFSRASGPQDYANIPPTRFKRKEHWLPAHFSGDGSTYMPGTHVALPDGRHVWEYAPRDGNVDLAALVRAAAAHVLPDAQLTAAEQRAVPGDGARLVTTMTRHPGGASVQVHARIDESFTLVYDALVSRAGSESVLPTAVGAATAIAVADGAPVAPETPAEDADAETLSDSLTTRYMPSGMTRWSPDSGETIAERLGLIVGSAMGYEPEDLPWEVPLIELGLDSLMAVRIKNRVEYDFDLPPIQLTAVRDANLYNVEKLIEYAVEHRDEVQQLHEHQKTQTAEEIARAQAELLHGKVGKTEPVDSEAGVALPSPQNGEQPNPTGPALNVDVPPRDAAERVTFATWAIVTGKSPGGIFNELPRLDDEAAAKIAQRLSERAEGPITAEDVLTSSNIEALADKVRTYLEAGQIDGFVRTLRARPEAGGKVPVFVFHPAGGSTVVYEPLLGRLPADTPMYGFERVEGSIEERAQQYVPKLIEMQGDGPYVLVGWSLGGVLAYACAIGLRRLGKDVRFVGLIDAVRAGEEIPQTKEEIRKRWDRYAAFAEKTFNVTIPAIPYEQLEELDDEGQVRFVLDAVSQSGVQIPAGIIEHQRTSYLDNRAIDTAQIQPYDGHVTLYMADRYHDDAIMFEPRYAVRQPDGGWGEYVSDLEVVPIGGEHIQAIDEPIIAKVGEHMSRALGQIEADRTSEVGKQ
UniProt P9WFT3, whole entry: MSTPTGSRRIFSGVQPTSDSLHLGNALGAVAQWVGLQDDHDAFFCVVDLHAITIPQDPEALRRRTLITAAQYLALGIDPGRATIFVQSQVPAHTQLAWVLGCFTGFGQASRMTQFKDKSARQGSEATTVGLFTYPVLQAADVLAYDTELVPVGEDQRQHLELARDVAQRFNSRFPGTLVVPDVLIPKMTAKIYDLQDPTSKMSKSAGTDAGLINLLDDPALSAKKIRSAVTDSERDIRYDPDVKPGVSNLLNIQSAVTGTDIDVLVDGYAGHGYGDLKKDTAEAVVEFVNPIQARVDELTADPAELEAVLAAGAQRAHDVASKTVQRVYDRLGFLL

Each number is a percent effect as filed. The record does not define 0% and 100%; most values in the screen are far below 50% and negative numbers occur (in some assays of this library far below -100). The compounds are a random part of those screened.

compound: Cc1ccccc1CN(C)C(C(N)=O)c1ccccc1 (centres undefined)
A: 13.07
B: -0.6098
C: 6.041

compound: O=C(c1ccco1)N1CC[C@@H]2O[C@H](COCCN3CCCC3)CC[C@@H]21
A: 6.752
B: -19.48
C: 4.813

compound: COc1ccc(C)nc1NC(=O)Cc1c(C)nn(C)c1C
A: -2.96
B: -4.341
C: -6.442

compound: O=C(Cn1cnc2ccccc2c1=O)Nc1cc(C2CC2)n[nH]1
A: 13.45
B: -21.41
C: 9.08

compound: Cc1ccc(C(=O)N2CCCS2(=O)=O)cc1Cl
A: -10.53
B: -3.475
C: -2.449

compound: Cc1ccc(-c2noc([C@@H]3C[C@H](NC(=O)CC(C)(C)C)CN3C)n2)cc1
A: -10.67
B: -16.47
C: -1.449

compound: COc1ccc2c(c1)C1(CCN(Cc3ccncc3)CC1)N(C)CC2
A: -14.86
B: -3.978
C: -4.52

compound: CCc1ncc(C(=O)NCCN(C)S(C)(=O)=O)cn1
A: -10.82
B: 0.8247
C: -0.161

compound: CCn1cc(CN(C)S(=O)(=O)N2CCCC2c2ccco2)cn1 (centres undefined)
A: -9.12
B: -33.95
C: -3.212

compound: CCCn1ncc(C(=O)N2CCN(C(=O)c3ccc[nH]3)CC2)c1C
A: -24.24
B: 4.077
C: 2.729

compound: COC1CCN(C(=O)Cc2csc(-c3ccccc3)n2)CC1
A: -35.12
B: -2.584
C: -3.704

compound: Cc1ccc(F)c(NCC(C)(C)S(C)(=O)=O)c1
A: -3.911
B: -22.27
C: 1.341

compound: Cc1noc(CNc2cc3c(cc2Cl)NC(=O)CO3)n1
A: -0.05497
B: -9.289
C: 0.2138

compound: COCCN1CCN(CC(=O)N(C)Cc2ccccc2)CC1C (centres undefined)
A: 11.77
B: -5.924
C: -2.364

compound: CS(=O)(=O)c1cncnc1C1CCCN(C(=O)Nc2ccccc2F)C1 (centres undefined)
A: -12.19
B: 1.323
C: 0.2764

compound: CCn1c(CC2CCN(C(=O)c3cc(C(C)C)n[nH]3)CC2)n[nH]c1=O
A: 2.458
B: -18.63
C: -1.878

compound: COCCCN1CCN(C(=O)C(c2cccc(F)c2)N(C)C)CC1 (centres undefined)
A: -13.2
B: 2.019
C: 0.2463

compound: OC(COc1ccc(F)cc1)CN1CCC(c2ccn[nH]2)CC1 (centres undefined)
A: -15.53
B: 2.792
C: -0.3438

compound: COc1c(C)cc(S(=O)(=O)NCC2CNCCOC2)cc1C (centres undefined)
A: 0.7924
B: -7.386
C: -3.604

compound: Cn1ccnc1S(=O)(=O)C(C(=O)N1CCCCC1)c1ccccc1 (centres undefined)
A: 14.82
B: 31.43
C: -3.964

compound: O=C(NCC1(c2ccc(F)cc2)CC1)N1CCC2(CCOC2)C1 (centres undefined)
A: 0.3893
B: -15.1
C: 0.5623

compound: Cc1nc(N)cc(C2(C)CCCNC2)n1 (centres undefined)
A: -4.838
B: -0.1863
C: -3.46

compound: COCc1ncn(Cc2nc(-c3ccc(OC)c(OC)c3)oc2C)n1
A: -6.611
B: -7.262
C: -1.341

compound: CNC(=O)c1cc2c(nc1N(C)C)CCN(C)CC2
A: -26.31
B: -20.56
C: -10.99

compound: Cn1ccc(CN2CCC(NC(=O)Cc3ccccc3)CC2)cc1=O
A: 4.797
B: -6.296
C: -0.07424

compound: CN(Cc1cc2cc(F)ccc2[nH]1)C(=O)C1CC(=O)N(C2CC2)C1 (centres undefined)
A: 5.433
B: -1.054
C: 5.369

compound: COCc1noc(CN2CC(Cc3ccccc3)CC2=O)n1 (centres undefined)
A: 4.261
B: 1.775
C: 2.719

compound: O=C(c1cccnc1-n1cncn1)N1CCN(CC(F)(F)F)CC1
A: -9.453
B: -24.86
C: -1.323

compound: CCN1C(=O)CO[C@@H]2CN(C(=O)C3CCOCC3)C[C@H]21
A: 12.61
B: -5.711
C: -5.679

compound: CCc1c(C)nc2cc(-c3nccn3C)nn2c1N1CCCC(CO)C1 (centres undefined)
A: -8.974
B: -2.943
C: -9.204

compound: c1cncc(O[C@H]2CC[C@H]3[C@H]2OCCN3C2CCC2)c1
A: -17.41
B: 3.109
C: -0.4504

compound: Cn1ncc2c1C(COCC1CC1)CN(Cc1cccnc1)C2 (centres undefined)
A: 10.09
B: -43.56
C: 1.992

The first 2 entries again:

| compound | A | B | C |
|---|---|---|---|
| `Cc1ccccc1CN(C)C(C(N)=O)c1ccccc1` (centres undefined) | 13.07 | -0.6098 | 6.041 |
| `O=C(c1ccco1)N1CC[C@@H]2O[C@H](COCCN3CCCC3)CC[C@@H]21` | 6.752 | -19.48 | 4.813 |

Measurements from “University of Dundee, Small-Polar-MMV Screening Library” (2021), ChEMBL document CHEMBL3988442.